Results reported in publication PMC7995733.
Results are given in words; binding and its absence hold for the method and conditions named. In cells and extracts the contact can be indirect. Some binding calls cover weakened binding; strength is not graded here.

The chains behind the UniProt entries cited, without tags or fusion partners. Residues count along the entry.
UniProt P19957, residues 61-117: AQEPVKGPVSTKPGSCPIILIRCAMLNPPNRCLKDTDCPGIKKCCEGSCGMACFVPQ

What was measured:
[1] = molecular target: Elafin (endogenous, PLC-8024 cells) (human (endogenous in PLC-8024)) (UniProt P19957); experiment: co-IP; RIPA lysate mixed with the corresponding concentrated conditioned medium; anti-EGFR or anti-Elafin, anti-IgG as negative control, overnight at 4 °C; Protein A/G PLUS-Agarose; western blotting with anti-EGFR or anti-Elafin
[2] = molecular target: Elafin (overexpressed in HCC cells) (UniProt P19957); experiment: as above
[3] = molecular target: wild-type EGFR (construct transfected in HEK293T) (UniProt P00533); experiment: co-IP; HEK293T cells transfected with EGFR constructs, lysed at 48 h, lysates incubated with rElafin and subjected to co-IP; only the binder purified

| Substance | binding [1] | binding [2] | binding [3] |
| --- | --- | --- | --- |
| Epidermal growth factor receptor (endogenous, HCC cells) (from UniProt P00533 25-1210) | binds | binds |  |
| recombinant Elafin (from UniProt P19957 61-117) |  |  | binds |
